From PMC10208891
Results are given in words; binding and its absence hold for the method and conditions named. In cells and extracts the contact can be indirect. Binding can be weak; no strength is given.

Sequences of proteins named here, by UniProt entry; tags and fusion partners are left off. A change or cut given only in a name is not applied to a line headed by its entry.
UniProt Q9BYJ9: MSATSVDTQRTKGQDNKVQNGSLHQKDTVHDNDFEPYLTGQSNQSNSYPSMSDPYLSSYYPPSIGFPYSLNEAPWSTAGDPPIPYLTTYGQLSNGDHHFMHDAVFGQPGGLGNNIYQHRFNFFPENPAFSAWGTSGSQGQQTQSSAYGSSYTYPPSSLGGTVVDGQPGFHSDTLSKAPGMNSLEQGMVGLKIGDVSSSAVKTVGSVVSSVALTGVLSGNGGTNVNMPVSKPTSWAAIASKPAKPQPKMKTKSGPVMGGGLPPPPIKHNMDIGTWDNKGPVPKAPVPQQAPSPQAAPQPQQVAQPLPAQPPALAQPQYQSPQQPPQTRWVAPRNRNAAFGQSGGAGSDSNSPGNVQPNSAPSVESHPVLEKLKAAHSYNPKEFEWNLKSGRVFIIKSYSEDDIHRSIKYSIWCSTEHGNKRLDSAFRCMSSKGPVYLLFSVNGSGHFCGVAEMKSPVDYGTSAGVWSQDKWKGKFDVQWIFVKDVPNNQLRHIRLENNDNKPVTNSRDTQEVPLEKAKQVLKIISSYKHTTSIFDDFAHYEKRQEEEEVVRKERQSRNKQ
UniProt O14980: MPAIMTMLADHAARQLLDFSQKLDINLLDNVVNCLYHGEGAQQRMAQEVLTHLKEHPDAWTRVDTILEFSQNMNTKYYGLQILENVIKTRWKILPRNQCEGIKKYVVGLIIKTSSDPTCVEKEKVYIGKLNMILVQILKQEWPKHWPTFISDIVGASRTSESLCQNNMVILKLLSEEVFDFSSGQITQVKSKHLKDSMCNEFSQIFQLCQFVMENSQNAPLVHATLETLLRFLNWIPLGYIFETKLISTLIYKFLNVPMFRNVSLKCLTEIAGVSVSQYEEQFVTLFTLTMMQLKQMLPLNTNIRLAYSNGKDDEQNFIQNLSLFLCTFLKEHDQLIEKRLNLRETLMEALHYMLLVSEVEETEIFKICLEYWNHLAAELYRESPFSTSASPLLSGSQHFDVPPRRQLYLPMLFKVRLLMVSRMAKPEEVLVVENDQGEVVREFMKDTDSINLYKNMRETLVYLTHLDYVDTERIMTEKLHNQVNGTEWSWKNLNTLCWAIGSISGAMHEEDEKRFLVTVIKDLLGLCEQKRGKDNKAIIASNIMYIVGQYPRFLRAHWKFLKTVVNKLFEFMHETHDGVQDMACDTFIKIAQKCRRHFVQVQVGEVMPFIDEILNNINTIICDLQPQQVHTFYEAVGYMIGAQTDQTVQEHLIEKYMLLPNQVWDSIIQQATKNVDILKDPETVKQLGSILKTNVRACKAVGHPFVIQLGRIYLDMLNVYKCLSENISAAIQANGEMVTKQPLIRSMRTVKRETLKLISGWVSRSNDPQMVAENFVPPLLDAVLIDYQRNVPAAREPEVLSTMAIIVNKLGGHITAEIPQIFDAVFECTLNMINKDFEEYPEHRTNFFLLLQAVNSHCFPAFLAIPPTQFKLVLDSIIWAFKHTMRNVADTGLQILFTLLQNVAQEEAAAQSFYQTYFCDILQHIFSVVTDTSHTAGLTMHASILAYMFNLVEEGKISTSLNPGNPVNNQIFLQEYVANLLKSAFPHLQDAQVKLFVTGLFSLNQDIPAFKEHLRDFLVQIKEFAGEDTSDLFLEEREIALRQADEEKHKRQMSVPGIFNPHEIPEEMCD

Biological target: YTHDF1-4A (NES-deficient mutant) (UniProt Q9BYJ9)
Experiment: co-IP; cells transfected with SFB-YTHDF1 (WT, AFA or 4A) and HA-CRM1; some samples treated with KPT-330 (Crm1 inhibitor, 5 uM, 24 h), TMG plus glucose, or acetyl-5S-GlcNAc (OGT inhibitor, 100 uM, 24 h)

- binding: binds
Substance: HA-CRM1 (exportin 1) (from UniProt O14980 1-1071)
